One molecule from publication PMC4182809 can be followed below.

For the assay, the target named is plastidic glutamine synthetase (GS2), maize, stromal form (maize (endogenous in maize chloroplasts)) (UniProt P25462). Kind of assay: native gel or EMSA; BN-PAGE (4-16% Bis-Tris gradient gel, 4°C) of stroma and thylakoid proteins of chloroplasts, western blot, with 2D SDS-PAGE; extraction in 20 mM Hepes-KOH pH 7.5, or potassium phosphate pH 6 or pH 8 with or without 0.1 M NaCl, 10 mM DTT or 10 mM ascorbic acid.

Results are given in words; binding and its absence hold for the method and conditions named. Some results given as binding are weak or reduced against the parent protein; the word gives no strength.

B1: plastidic glutamine synthetase (GS2), maize, stromal form (enzyme, UniProt P25462 52-423)
chain: VPRLEQLLNMDTTPYTDKVIAEYIWVGGSGIDIRSKSRTISKPVEDPSELPKWNYDGSSTGQAPGEDSEVILYPQAIFKDPFRGGNNVLVICDTYTPQGEPLPTNKRHRAAQIFSDPKVGEQVPWFGIEQEYTLLQKDVNWPLGWPVGGFPGPQGPYYCAVGADKSFGRDISDAHYKACLYAGINISGTNGEVMPGQWEYQVGPSVGIEAGDHIWISRYILERITEQAGVVLTLDPKPIQGDWNGAGCHTNYSTKTMREDGGFEEIKRAILNLSLRHDLHISAYGEGNERRLTGKHETASIGTFSWGVANRGCSIRVGRDTEAKGKGYLEDRRPASNMDPYIVTGLLAETTILWQPSLEAEALAAKKLALKV
For B1, the binding result is “binds”.
